Measured values taken from the supplement of paper PMC12067093, “Discovery and optimisation of a covalent ligand for TRIM25 and its application to targeted protein ubiquitination” (Chemical Science, 2025).
The list shows a part of the results.

The chains behind the UniProt entries cited, without tags or fusion partners. Where a name states a change or a piece, a line headed by the entry shows the natural chain unless it says otherwise.
UniProt P13196: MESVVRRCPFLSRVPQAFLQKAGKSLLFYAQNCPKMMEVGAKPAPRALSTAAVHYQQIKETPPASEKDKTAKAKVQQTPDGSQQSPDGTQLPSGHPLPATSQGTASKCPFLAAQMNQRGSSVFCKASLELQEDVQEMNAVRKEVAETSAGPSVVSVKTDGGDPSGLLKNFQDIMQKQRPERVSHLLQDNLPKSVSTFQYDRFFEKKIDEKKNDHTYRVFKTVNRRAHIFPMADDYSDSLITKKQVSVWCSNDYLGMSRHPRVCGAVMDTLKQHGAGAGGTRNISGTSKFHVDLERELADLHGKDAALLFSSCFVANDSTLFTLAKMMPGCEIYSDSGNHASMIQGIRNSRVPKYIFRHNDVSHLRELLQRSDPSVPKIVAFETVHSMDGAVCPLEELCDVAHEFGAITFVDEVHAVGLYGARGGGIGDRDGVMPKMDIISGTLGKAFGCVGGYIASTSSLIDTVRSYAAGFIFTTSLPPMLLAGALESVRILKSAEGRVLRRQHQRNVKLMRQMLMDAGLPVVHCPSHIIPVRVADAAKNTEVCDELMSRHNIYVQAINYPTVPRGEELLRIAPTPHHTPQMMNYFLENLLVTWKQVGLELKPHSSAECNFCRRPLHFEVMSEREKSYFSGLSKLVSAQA
UniProt O43865, whole entry, looked up: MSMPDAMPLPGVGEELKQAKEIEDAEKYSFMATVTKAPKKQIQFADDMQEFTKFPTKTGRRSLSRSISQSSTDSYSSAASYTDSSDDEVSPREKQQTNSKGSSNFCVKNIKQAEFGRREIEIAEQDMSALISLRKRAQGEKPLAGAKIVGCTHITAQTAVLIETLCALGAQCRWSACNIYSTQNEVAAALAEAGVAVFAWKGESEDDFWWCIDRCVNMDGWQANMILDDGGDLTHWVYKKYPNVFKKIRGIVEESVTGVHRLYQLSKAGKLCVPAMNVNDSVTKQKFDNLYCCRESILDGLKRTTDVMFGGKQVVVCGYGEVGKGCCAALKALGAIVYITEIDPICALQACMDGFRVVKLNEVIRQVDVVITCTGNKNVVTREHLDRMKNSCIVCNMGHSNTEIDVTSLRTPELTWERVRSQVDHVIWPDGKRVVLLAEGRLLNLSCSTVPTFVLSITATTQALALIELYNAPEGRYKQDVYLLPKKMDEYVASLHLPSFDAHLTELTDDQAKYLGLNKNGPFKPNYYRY
UniProt O00170: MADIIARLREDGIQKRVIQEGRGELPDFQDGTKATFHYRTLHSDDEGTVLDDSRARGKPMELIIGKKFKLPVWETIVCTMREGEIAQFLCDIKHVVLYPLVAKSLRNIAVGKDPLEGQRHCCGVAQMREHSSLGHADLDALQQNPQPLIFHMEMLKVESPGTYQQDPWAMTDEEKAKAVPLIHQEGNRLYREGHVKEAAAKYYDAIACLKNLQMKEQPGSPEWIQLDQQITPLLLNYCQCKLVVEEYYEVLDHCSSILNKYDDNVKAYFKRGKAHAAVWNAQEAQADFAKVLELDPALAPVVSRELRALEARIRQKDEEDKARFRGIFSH
UniProt P04075: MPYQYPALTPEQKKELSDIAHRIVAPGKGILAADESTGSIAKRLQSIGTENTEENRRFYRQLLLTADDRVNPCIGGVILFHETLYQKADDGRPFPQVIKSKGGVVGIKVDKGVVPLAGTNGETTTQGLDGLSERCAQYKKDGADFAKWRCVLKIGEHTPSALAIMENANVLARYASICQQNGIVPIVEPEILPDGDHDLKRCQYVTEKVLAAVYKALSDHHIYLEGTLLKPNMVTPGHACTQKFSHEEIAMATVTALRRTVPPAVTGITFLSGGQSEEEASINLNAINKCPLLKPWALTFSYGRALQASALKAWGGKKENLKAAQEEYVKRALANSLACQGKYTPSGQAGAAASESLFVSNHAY
UniProt Q92667: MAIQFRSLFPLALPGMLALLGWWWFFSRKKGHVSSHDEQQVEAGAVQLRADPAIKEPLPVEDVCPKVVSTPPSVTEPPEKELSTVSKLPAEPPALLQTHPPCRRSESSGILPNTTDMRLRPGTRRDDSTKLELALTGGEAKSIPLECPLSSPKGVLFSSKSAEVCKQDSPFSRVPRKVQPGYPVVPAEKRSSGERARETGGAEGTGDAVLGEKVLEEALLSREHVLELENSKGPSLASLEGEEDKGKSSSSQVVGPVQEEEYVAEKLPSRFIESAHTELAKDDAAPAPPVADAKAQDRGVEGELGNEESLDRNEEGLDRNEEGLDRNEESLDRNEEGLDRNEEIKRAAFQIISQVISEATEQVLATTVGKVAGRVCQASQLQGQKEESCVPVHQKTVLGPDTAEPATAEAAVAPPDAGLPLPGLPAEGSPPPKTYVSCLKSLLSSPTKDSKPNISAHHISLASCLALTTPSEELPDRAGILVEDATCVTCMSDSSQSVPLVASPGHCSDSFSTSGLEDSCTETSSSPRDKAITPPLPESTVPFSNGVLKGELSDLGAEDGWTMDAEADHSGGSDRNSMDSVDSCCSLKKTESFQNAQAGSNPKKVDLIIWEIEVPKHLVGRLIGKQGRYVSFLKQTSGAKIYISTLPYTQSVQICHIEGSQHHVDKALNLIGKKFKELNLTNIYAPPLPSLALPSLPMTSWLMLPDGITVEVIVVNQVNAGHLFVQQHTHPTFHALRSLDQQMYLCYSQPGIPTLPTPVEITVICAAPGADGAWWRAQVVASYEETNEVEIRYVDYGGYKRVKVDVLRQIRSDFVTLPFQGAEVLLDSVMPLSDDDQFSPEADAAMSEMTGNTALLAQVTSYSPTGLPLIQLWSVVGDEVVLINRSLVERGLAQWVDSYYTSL
UniProt Q12904: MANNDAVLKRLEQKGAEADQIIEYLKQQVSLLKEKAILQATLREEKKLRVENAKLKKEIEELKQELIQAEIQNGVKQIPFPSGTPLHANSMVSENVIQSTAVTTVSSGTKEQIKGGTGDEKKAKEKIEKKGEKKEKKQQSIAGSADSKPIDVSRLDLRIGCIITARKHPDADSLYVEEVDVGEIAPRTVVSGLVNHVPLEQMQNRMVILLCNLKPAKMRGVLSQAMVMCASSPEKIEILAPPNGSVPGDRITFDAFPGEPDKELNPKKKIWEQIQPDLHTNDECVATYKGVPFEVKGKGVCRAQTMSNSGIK
UniProt P49189: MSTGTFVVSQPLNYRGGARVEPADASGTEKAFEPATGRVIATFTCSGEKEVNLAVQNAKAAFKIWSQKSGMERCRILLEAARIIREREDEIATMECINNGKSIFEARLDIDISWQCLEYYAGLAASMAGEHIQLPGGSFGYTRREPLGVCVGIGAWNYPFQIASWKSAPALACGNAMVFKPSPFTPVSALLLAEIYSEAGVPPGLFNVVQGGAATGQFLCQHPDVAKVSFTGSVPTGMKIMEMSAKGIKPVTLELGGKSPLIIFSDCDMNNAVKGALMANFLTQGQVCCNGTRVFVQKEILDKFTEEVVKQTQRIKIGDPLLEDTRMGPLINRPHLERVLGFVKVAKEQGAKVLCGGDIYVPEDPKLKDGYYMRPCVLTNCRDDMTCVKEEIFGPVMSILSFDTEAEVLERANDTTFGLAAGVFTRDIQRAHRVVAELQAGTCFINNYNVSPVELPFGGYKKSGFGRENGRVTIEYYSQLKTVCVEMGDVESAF
UniProt Q9NYG5, whole entry, looked up: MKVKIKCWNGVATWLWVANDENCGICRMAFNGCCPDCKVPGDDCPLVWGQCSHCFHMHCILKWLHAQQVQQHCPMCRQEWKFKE
UniProt Q02040: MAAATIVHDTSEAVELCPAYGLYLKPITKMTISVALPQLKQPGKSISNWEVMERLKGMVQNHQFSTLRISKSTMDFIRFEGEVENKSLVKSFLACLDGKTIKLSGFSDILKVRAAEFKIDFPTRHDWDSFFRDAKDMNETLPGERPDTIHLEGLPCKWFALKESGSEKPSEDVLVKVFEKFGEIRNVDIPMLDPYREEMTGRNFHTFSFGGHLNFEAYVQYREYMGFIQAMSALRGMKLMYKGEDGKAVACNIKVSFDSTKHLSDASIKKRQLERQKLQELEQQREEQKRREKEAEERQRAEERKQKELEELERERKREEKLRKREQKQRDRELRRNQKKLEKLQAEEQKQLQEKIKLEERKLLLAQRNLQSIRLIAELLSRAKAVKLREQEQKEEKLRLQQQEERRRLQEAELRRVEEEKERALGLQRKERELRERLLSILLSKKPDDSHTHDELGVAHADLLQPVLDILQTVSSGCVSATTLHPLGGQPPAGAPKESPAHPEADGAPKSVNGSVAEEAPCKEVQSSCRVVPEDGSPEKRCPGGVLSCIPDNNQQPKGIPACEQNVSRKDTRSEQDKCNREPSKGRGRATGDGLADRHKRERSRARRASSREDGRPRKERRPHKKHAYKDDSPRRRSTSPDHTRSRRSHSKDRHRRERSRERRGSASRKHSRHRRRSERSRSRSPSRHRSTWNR
UniProt P05091: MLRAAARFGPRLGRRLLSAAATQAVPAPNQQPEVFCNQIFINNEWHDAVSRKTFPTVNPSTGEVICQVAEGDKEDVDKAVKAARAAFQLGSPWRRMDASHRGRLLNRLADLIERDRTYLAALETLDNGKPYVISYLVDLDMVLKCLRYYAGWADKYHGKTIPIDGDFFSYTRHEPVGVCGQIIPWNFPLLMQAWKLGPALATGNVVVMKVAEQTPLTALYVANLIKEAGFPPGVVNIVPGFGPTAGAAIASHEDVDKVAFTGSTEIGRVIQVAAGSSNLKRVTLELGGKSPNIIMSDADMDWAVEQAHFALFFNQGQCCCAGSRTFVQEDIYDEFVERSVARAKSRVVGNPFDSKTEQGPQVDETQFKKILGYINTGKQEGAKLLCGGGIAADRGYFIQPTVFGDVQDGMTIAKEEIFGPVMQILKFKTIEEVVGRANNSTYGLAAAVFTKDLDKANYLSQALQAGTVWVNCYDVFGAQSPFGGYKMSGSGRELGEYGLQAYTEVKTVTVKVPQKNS
UniProt P35573: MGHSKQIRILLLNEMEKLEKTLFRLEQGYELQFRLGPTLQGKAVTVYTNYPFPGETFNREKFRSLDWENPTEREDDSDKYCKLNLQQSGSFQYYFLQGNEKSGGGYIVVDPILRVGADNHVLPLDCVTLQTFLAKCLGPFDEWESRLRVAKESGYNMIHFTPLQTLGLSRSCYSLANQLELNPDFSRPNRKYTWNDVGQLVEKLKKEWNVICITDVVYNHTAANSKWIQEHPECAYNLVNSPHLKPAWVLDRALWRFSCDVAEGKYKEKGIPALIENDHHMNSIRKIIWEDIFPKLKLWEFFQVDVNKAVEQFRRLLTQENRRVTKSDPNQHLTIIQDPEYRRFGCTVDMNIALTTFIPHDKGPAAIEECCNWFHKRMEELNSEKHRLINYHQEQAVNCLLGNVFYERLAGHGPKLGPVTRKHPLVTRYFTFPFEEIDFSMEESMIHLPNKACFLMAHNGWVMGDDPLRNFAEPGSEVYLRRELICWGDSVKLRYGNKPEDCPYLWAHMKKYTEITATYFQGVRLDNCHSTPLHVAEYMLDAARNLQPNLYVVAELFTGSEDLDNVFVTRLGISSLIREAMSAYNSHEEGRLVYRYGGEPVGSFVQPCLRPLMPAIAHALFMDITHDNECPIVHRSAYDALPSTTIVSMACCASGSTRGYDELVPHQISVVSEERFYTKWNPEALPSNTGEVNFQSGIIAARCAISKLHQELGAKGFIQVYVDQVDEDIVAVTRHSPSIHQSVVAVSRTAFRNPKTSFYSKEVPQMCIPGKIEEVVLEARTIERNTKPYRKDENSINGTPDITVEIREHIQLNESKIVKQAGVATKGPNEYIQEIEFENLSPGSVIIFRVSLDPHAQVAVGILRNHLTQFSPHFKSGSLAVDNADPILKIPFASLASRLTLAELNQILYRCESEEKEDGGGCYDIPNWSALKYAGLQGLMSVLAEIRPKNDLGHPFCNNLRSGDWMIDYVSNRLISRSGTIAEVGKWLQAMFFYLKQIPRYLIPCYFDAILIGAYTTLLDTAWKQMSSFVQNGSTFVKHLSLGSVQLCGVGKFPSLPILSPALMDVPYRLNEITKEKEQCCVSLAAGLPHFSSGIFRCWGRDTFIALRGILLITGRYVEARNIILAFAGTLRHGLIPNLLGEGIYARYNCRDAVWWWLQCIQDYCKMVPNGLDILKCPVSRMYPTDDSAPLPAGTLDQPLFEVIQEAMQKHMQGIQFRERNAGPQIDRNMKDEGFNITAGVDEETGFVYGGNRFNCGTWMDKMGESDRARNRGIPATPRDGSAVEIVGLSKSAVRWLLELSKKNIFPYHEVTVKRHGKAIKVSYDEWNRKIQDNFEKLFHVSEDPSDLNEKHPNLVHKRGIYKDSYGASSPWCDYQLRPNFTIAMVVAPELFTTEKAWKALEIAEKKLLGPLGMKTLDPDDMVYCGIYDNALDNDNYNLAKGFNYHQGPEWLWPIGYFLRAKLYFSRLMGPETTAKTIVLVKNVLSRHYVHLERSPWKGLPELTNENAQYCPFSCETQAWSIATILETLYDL

Compound: CC1Cc2ccccc2N1C(=O)C1CCCN(C1)C(=O)CCl (mixture of isomers) [TRIM25 ligand 11 (diastereomer mixture)]
Assay: probe-labelled cysteine peptide fold change vs DMSO (competition) (log2 fold change); higher = less target engagement (more negative = stronger competition)
Details: THP-1, incubation time: 4 h
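Also: competitive chemoproteomic profiling in live THP-1 cells with an iodoacetamide desthiobiotin (IA-DTB) probe, comparing probe-labelled peptide intensities in compound-treated cells against DMSO-treated controls.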

| Target | probe-labelled cysteine peptide fold change (10 µM) | probe-labelled cysteine peptide fold change (50 µM) |
| --- | --- | --- |
| ALAS1_P13196_263_VCGAVMDTLK (UniProt P13196) | -0.0227 | 0.246 |
| AHCYL1_O43865_215_CVNMDGWQANMILDDGGDLTHWVYKK (UniProt O43865) | -0.0274 | -0.0471 |
| AIP_O00170_121+122_HCCGVAQMR (UniProt O00170) | -0.0594 | -0.276 |
| ALDOA_P04075_73_QLLLTADDRVNPCIGGVILFHETLYQK (UniProt P04075) | -0.0181 | -0.162 |
| ALKBH1_Q13686_371_DISTEGFCHLDDQNSEVKR (UniProt Q13686) | 0.197 | -0.192 |
| AGMAT_Q9BSE5_216_CVDEGLLDCKR (UniProt Q9BSE5) | -0.0312 | -0.0253 |
| ALDOA_P04075_178_YASICQQNGIVPIVEPEILPDGDHDLKR (UniProt P04075) | 0.0218 | 0.164 |
| AHCYL1_O43865_172_IVGCTHITAQTAVLIETLCALGAQCR (UniProt O43865) | -0.215 | -0.0246 |
| AKAP1_Q92667_655_IYISTLPYTQSVQICHIEGSQHHVDK (UniProt Q92667) | 0.11 | 0.538 |
| AKR1A1_P14550_46_HIDCAAIYGNEPEIGEALK (UniProt P14550) | 0.0451 | 0.0223 |
| AHCYL1_O43865_272_LCVPAMNVNDSVTK (UniProt O43865) | 0.0544 | -0.00579 |
| AKR1B1_P15121_299+304_VCALLSCTSHK (UniProt P15121) | -0.068 | -0.257 |
| ANAPC1_Q9H1A4_1630_LLVPVDVDTNTPCYALLEVTYK (UniProt Q9H1A4) | -0.0593 | -0.0545 |
| AIMP1_Q12904_284_IWEQIQPDLHTNDECVATYK (UniProt Q12904) | 0.0398 | -0.218 |
| ALDH9A1_P49189_288+289_GALMANFLTQGQVCCNGTR (UniProt P49189) | 0.121 | 0.112 |
| AKAP8L_Q9ULX6_128_YDSYESCDSR (UniProt Q9ULX6) | 0.0406 | -0.0423 |
| AHNAK_Q09666_1900_LEGDLTGPSVGVEVPDVELECPDAK (UniProt Q09666) | 0.0611 | 0.146 |
| ANAPC11_Q9NYG5_73+76_WLHAQQVQQHCPMCR (UniProt Q9NYG5) | -0.13 | -0.211 |
| AHCTF1_Q8WYP5_521_CLVAGLLSPR (UniProt Q8WYP5) | -0.0861 | -0.0696 |

| Target | probe-labelled cysteine peptide fold change (10 µM) | probe-labelled cysteine peptide fold change (50 µM) |
| --- | --- | --- |
| ALDOA_P04075_290_CPLLKPWALTFSYGR (UniProt P04075) | -0.469 | -0.435 |
| ALDH18A1_P54886_546_EEVEDLCR (UniProt P54886) | 0.122 | 0.0208 |
| ALDH9A1_P49189_45_VIATFTCSGEK (UniProt P49189) | -0.0203 | 0.015 |
| AKAP17A_Q02040_522_SVNGSVAEEAPCK (UniProt Q02040) | -0.157 | -0.189 |
| ALDOC_P09972_73_KCIGGVIFFHETLYQK (UniProt P09972) | 0.048 | 0.0826 |
| AIMP1_Q12904_211_MVILLCNLKPAK (UniProt Q12904) | -0.363 | -0.36 |
| AGPS_O00116_247_YNLCIIPIGGGTSVSYGLMCPADETR (UniProt O00116) | -0.152 | -0.023 |
| ALDH6A1_Q02252_86_AEMDAAIASCK (UniProt Q02252) | 0.0424 | -0.104 |
| ALDH2_P05091_179_HEPVGVCGQIIPWNFPLLMQAWK (UniProt P05091) | -0.0541 | 0.0323 |
| AIMP2_Q13155_306_SCENLAPFNTALK (UniProt Q13155) | -0.114 | -0.131 |
| AMACR_Q9UHK6_293_AEWCQIFDGTDACVTPVLTFEEVVHHDHNK (UniProt Q9UHK6) | 0.181 | 0.0895 |
| AKAP17A_Q02040_17_AAATIVHDTSEAVELCPAYGLYLK (UniProt Q02040) | 0.583 | 0.399 |
| AGL_P35573_259_FSCDVAEGK (UniProt P35573) | 0.119 | 0.206 |
| AMDHD2_Q9Y303_261_CIFYGMIADGTHTNPAALR (UniProt Q9Y303) | -0.00488 | 0.102 |
| AIP_O00170_78_LPVWETIVCTMR (UniProt O00170) | -0.126 | 1.17 |
| ANK2_Q01484_375_APVDDVTLDYLTALHVAAHCGHYR (UniProt Q01484) | 0.000842 | 0.00679 |
| AKAP17A_Q02040_563_GIPACEQNVSR (UniProt Q02040) | -0.0813 | -0.314 |
| AGL_P35573_957_NDLGHPFCNNLR (UniProt P35573) | 0.00062 | -0.0293 |
